Results on four molecules are retold here after patent US20100092982A1 (University of California, published 2010).

The chains behind the UniProt entries cited, without tags or fusion partners. Where a name states a change or a piece, a line headed by the entry shows the natural chain unless it says otherwise. Residues count along the entry.
UniProt Q9Y6Q9: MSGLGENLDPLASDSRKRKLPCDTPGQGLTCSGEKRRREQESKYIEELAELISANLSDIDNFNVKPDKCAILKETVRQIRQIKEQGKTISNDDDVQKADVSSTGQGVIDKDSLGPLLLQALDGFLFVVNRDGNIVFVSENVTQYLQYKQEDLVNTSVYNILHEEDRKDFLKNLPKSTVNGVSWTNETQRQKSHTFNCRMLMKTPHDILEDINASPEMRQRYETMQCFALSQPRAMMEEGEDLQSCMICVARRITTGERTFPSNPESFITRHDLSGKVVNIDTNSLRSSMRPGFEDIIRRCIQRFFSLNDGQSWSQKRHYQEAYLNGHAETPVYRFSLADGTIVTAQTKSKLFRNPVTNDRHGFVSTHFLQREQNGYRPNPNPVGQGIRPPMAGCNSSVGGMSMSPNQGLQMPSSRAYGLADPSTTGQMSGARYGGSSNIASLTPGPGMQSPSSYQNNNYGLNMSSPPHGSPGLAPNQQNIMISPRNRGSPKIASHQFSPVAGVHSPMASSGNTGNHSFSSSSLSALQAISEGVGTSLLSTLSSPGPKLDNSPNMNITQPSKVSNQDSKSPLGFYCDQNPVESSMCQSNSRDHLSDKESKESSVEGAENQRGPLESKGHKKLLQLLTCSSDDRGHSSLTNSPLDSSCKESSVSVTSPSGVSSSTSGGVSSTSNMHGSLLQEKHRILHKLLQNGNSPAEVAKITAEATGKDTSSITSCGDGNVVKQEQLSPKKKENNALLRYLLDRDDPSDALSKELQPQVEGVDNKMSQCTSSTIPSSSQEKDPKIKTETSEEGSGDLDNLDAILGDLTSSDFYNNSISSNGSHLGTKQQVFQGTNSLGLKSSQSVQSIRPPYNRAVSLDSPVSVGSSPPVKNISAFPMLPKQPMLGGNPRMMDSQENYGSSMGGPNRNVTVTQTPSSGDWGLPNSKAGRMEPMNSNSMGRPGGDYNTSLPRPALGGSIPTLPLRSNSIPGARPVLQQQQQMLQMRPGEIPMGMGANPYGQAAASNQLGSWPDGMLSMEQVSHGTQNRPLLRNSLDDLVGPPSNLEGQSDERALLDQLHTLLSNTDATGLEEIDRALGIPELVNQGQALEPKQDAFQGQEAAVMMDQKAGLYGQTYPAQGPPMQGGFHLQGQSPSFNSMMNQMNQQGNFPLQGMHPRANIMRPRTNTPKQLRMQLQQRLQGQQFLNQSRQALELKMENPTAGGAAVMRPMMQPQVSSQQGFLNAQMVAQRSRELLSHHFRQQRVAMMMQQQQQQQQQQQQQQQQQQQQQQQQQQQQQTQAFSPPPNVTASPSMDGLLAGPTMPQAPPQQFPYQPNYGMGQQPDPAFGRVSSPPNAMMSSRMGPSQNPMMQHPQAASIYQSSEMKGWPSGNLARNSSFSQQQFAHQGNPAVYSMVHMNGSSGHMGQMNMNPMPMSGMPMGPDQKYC
UniProt Q15788: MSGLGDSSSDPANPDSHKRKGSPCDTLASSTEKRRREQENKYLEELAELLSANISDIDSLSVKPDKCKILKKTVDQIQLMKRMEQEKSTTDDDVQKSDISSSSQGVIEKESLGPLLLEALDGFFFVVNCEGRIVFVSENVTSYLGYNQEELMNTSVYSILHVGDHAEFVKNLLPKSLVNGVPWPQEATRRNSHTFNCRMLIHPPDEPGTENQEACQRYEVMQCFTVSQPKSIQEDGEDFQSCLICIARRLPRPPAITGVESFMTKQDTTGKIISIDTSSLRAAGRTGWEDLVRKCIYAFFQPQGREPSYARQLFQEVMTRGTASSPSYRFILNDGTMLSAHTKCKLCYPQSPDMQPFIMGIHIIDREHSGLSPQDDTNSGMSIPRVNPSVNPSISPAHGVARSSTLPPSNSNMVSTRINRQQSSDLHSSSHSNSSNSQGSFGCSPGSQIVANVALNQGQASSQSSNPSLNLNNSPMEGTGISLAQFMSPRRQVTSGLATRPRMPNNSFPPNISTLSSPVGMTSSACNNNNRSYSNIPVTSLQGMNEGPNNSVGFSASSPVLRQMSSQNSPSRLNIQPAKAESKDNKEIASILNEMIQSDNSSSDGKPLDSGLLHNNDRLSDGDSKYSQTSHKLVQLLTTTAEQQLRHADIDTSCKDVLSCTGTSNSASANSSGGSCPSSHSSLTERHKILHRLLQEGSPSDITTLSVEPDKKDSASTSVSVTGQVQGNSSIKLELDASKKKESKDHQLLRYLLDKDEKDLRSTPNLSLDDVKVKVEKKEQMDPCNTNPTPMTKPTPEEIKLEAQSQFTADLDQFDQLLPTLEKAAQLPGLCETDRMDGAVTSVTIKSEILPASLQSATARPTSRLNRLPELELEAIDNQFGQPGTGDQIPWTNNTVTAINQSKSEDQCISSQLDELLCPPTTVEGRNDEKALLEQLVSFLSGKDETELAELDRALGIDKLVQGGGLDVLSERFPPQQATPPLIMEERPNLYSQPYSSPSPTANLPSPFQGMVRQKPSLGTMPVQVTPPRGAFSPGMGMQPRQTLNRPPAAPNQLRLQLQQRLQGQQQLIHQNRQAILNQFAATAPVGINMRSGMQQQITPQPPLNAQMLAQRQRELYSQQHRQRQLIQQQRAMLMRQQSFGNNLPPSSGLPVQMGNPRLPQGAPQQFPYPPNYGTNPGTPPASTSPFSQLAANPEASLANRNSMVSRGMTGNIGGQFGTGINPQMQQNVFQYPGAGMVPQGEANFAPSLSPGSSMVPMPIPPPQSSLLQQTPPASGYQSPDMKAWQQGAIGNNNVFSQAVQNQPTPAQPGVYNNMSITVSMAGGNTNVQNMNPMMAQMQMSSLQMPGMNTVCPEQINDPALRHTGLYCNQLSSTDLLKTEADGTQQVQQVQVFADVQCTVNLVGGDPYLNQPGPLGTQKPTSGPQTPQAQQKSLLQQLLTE
UniProt Q61026: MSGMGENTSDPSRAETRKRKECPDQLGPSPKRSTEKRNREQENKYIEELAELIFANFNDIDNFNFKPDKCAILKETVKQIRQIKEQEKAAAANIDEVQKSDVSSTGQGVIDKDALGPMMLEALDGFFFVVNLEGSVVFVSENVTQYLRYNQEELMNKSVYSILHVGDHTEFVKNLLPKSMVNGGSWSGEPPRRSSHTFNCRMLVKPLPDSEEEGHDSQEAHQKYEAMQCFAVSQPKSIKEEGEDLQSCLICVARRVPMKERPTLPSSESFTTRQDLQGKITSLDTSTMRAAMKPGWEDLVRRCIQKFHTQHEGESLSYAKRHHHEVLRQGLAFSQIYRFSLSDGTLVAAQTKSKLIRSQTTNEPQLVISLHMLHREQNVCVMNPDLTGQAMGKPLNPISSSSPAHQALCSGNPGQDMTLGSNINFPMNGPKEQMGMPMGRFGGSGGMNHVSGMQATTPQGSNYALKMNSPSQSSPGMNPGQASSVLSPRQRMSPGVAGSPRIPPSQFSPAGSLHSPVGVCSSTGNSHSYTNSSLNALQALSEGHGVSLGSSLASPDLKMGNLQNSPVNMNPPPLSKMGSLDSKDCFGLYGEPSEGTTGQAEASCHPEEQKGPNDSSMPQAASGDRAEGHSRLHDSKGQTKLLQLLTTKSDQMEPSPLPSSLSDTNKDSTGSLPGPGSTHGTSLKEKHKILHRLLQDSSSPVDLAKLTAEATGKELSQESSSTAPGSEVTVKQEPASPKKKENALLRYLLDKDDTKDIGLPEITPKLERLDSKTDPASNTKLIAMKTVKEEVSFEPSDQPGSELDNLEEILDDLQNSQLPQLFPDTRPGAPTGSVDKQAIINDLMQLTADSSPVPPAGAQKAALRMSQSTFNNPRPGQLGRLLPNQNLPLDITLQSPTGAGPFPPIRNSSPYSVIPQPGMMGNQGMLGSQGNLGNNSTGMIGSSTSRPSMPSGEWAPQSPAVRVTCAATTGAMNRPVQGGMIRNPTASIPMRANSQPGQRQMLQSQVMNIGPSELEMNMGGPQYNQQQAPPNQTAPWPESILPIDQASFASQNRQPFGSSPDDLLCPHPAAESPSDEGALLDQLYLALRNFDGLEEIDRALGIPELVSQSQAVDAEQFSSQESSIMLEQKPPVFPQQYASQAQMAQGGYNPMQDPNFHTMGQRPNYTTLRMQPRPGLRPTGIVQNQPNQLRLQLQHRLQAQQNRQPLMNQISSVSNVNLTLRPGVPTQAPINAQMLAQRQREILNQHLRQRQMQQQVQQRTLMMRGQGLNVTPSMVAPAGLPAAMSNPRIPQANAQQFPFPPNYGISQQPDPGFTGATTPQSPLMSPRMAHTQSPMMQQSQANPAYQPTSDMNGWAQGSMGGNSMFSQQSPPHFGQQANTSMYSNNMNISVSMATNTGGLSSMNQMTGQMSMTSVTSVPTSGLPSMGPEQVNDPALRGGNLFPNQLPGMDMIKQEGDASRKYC
GRIP1 (5-1462) (full length), from pSG5.HA-GRIP1: residues 5-1462 of Q61026

Residue numbers refer to the chain shown, from its start. No constants are given. Whether binding was seen depends on the method and setting. Binding seen in cells or lysates may run through a third protein. Some entries that bind do so weakly or less than the wild type. For part of these data: Where a sequence is shown, tags or fusion partners need not be part of it.

Experiment [1] deals with T1, CARM1 (full length, translated in vitro from pSG5.HA-CARM1) (mouse).
T1 sequence: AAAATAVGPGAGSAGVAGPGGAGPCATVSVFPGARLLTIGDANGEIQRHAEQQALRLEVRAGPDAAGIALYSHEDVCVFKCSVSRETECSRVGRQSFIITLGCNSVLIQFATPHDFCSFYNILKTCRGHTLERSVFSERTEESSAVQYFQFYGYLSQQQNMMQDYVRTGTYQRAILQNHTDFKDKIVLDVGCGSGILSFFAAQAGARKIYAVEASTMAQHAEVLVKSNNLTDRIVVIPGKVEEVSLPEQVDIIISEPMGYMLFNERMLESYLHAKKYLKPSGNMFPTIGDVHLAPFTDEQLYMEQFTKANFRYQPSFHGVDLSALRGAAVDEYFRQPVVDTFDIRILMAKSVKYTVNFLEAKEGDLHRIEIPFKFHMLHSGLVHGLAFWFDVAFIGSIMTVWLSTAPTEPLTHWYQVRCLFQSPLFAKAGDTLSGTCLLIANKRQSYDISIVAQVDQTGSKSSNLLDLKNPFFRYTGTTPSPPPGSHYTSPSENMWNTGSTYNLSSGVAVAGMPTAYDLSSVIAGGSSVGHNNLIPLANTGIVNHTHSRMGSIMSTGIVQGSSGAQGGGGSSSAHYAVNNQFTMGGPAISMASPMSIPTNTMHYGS
The experiment is described as follows: GST pull-down on glutathione agarose beads, labeled in vitro translated protein, SDS-PAGE.

Experiment [2] concerns the target T2, CARM1 VLD mutant (VLD to AAA mutant of CARM1) (mouse).
T2 sequence: T1 sequence with V187A, L188A, D189A
Described as above.

The next experiment addresses ACTR, from pCMX.ACTR (UniProt Q9Y6Q9). The experiment is described as above.
The target of experiment [3] is SRC-1a (1-1441) (full length), from pSG5.HA-SRC-1a (UniProt Q15788). The experiment is described as above.
Experiment [4] deals with GRIP1 (5-1462) (full length), from pSG5.HA-GRIP1 (UniProt Q61026). The experiment is described as above.
The target of experiment [5] is GRIP1c (amino acids 1122-1462), translated in vitro (UniProt Q61026). The description is as above.
Experiment [6] concerns the target GST-GRIP1c (amino acids 1122-1462) (UniProt Q61026). The experiment is described as follows: GST pull-down (figure legend).
The target is the same in experiment [7]. The experiment is described as follows: GST pull-down.

“GST-GRIP1c (amino acids 1122-1462) (from UniProt Q61026 1122-1462)”: the binding result in experiment [1] and in experiment [2] was “binds” throughout.

B1: GST-CARM1 (enzyme)
chain: T1 sequence
notes: also called GST fusion protein of CARM1; glutathione S-transferase-CARM1; not shown: glutathione S-transferase (GST) as encoded by vector pGEX-4T1 (Pharmacia)
As to B1, the binding entry with ACTR, from pCMX.ACTR is listed as “binds”; in experiment [3] it was “binds”; in experiment [4], “binds”; in experiment [5], “binds”.

B2: CARM1 (full length, translated in vitro from pSG5.HA-CARM1) (enzyme, not shown: small tags and cut ends)
chain: T1 sequence
Consider B2, for which the binding result in experiment [6] was “binds”.

B3: CARM1 VLD mutant (VLD to AAA mutant of CARM1) (enzyme, not shown: small tags and cut ends)
chain: T1 sequence with V187A, L188A, D189A
In the case of B3, the binding result in experiment [7] and in experiment [6] was “binds” each time.
